# Laboratory results: the supplement of paper PMC10849652
# Protein sequences, listed by entry. Tags and fused reporters are not part of them. Lines headed by an entry give the natural chain unless they say otherwise; changes in a name come on top.
# UniProt P07910: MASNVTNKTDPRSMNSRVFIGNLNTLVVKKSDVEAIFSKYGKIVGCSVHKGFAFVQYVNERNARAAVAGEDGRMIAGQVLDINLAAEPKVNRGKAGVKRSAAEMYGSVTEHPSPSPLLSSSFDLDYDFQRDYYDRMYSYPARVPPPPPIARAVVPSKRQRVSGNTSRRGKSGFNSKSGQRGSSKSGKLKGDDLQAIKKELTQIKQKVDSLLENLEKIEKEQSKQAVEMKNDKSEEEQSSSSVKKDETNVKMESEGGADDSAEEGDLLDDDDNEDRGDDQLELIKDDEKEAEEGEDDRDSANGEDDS
# UniProt Q9BQA5: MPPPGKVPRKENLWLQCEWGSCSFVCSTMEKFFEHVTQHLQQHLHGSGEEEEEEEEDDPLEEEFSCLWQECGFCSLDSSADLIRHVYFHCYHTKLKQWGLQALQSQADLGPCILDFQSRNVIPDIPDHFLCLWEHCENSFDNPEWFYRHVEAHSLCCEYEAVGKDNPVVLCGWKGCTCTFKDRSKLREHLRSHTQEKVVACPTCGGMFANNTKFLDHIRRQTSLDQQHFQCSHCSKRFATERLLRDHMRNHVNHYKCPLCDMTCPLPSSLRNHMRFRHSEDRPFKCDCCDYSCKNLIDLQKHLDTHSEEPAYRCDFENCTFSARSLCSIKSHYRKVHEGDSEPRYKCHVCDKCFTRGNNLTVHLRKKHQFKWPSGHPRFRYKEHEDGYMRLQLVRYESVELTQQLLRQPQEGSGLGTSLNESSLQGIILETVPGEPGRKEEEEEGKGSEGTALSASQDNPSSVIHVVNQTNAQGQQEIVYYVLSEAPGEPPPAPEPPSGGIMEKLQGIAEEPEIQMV
# UniProt P14210, whole entry, looked up: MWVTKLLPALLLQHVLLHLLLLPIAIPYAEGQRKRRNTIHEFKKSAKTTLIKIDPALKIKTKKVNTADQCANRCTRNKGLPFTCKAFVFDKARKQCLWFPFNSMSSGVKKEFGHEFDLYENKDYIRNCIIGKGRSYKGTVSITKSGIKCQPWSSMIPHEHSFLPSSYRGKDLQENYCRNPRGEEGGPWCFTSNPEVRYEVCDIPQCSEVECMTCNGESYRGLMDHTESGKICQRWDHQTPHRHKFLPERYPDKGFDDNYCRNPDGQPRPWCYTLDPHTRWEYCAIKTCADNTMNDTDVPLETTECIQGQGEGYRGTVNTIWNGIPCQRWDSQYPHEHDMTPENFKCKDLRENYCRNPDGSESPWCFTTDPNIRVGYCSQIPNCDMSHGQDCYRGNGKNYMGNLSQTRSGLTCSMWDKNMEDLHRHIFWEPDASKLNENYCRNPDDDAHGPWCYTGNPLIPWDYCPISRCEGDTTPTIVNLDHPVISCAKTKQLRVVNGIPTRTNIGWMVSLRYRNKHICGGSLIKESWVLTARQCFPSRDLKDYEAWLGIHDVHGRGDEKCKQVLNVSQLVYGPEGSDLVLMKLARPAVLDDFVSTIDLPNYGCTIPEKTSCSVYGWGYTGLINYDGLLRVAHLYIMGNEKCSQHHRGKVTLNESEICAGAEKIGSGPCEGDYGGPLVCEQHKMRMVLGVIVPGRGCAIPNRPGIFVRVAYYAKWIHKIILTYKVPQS
# UniProt Q04756: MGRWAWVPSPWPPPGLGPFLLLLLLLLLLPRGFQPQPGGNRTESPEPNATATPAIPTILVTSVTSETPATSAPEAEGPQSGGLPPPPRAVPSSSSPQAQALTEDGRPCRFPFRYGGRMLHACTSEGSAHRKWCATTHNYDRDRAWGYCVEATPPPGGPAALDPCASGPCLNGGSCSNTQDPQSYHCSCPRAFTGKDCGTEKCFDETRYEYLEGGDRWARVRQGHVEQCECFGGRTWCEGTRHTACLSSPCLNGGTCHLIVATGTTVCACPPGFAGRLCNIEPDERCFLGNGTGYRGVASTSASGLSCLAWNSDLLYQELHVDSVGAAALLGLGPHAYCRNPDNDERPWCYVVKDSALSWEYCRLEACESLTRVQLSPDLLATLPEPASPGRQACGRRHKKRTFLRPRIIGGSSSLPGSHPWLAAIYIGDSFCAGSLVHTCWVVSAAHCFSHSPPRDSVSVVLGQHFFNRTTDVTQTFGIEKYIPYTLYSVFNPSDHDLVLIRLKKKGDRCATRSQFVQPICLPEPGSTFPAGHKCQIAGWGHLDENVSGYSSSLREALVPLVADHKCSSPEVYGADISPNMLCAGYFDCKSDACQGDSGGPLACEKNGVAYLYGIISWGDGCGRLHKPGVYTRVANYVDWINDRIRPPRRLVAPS
# UniProt Q15011: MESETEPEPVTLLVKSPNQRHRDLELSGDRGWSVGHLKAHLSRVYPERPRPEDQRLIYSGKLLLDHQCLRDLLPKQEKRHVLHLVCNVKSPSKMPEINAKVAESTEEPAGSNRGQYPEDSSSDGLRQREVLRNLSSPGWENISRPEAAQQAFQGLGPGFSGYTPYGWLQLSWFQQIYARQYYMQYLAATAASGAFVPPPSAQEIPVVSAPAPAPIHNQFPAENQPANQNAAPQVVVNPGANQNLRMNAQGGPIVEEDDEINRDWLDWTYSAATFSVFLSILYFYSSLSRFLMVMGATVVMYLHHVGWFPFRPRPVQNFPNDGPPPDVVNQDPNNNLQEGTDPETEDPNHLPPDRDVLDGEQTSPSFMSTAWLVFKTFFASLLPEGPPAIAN
# UniProt Q03933: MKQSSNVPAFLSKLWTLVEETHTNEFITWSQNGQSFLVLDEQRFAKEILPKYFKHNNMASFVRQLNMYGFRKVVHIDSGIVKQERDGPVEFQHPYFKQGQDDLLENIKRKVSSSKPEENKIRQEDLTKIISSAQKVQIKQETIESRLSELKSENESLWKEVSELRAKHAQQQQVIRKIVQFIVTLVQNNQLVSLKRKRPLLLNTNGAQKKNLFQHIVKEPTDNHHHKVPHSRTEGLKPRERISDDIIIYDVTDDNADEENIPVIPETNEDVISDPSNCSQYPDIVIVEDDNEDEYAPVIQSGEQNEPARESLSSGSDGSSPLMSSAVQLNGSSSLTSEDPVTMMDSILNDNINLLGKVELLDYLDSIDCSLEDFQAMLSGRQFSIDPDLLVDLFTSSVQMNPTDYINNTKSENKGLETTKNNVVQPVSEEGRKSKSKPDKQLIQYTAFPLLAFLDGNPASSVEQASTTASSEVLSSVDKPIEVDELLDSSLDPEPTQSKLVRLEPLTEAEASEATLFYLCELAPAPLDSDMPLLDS
# UniProt P15428: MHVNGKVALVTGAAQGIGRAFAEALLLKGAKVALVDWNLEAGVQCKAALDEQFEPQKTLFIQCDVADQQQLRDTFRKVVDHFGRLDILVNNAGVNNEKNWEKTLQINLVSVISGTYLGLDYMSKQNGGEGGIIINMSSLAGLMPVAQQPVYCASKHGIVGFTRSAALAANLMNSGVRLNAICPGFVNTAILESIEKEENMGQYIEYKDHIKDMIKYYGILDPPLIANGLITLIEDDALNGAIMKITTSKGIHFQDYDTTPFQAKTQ
# UniProt P13747, whole entry, looked up: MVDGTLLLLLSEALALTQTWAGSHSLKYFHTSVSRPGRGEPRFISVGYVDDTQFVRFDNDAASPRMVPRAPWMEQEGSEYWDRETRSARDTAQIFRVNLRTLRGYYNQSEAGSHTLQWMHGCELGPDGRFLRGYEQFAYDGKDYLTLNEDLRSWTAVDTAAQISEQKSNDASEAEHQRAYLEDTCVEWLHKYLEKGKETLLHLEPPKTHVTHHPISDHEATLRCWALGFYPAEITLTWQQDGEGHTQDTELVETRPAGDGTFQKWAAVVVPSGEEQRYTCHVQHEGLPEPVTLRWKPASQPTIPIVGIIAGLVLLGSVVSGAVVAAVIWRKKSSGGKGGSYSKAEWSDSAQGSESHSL
# UniProt Q15034: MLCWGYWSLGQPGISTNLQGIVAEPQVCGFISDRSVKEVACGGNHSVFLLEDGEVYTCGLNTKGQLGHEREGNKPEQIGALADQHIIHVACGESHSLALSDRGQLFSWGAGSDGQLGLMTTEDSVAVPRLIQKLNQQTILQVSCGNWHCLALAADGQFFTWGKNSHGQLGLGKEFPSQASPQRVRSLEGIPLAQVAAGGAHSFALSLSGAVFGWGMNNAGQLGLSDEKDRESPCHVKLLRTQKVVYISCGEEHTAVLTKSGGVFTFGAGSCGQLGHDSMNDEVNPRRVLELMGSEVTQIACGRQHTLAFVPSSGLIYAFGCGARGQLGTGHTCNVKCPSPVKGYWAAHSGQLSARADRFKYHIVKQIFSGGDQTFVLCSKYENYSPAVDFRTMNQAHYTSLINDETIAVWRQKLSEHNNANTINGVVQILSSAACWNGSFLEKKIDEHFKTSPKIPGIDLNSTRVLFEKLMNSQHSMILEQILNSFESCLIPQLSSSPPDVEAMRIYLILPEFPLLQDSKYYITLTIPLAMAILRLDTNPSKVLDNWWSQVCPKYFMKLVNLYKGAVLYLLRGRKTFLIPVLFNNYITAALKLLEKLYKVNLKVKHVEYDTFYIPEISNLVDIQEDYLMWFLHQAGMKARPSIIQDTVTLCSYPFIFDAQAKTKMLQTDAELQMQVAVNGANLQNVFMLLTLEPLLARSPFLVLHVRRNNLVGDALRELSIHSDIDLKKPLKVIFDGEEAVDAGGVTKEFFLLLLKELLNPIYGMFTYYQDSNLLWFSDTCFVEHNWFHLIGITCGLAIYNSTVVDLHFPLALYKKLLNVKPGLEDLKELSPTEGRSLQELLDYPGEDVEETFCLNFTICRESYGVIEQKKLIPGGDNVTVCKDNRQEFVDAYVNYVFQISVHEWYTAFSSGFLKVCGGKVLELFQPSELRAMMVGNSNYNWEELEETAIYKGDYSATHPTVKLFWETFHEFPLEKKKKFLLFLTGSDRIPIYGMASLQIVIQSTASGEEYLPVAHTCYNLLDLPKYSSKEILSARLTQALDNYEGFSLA
# UniProt Q969F9: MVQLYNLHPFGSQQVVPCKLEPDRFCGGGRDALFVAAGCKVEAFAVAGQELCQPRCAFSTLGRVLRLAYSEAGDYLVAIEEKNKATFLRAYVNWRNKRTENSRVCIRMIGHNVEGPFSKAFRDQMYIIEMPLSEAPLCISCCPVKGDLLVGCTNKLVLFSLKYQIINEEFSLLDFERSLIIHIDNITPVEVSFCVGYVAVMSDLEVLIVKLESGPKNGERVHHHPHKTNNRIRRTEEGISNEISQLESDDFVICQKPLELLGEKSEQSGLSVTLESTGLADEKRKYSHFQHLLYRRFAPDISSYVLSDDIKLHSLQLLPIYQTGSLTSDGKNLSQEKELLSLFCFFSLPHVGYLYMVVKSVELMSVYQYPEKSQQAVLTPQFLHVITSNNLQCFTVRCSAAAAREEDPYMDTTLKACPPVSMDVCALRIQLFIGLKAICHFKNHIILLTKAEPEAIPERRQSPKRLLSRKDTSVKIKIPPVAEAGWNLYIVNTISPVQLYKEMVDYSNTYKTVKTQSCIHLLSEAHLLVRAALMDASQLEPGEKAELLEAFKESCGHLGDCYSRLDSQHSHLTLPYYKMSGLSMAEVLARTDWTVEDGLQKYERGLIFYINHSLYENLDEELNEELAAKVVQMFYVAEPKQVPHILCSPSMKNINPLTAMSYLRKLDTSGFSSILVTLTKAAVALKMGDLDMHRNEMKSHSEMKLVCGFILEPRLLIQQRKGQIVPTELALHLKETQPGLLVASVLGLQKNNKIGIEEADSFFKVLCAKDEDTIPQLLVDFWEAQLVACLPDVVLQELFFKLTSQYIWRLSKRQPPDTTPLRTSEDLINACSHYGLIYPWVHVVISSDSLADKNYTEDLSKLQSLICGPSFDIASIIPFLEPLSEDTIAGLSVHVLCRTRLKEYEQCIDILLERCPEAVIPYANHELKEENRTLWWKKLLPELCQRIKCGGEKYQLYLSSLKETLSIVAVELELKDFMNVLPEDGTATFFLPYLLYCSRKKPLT
# UniProt Q86YV9: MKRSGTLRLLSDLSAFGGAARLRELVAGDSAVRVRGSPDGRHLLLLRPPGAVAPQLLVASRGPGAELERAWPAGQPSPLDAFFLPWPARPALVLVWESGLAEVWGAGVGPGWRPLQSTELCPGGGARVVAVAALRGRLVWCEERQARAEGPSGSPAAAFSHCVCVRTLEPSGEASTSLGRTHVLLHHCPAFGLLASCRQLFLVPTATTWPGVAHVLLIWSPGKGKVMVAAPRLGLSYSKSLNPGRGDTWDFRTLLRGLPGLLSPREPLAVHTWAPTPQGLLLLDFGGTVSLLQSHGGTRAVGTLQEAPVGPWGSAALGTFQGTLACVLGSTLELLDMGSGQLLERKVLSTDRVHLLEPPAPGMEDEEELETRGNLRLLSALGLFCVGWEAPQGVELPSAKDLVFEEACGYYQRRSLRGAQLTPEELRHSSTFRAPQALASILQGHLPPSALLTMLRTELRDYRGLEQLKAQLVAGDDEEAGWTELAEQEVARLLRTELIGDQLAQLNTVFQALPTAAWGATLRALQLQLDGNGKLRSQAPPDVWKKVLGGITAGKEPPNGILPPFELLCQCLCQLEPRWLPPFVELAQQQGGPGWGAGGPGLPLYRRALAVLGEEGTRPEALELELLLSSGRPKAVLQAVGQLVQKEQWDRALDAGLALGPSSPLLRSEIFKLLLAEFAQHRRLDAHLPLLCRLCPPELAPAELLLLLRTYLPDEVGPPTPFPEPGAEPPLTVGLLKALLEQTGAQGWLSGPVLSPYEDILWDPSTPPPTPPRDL
# Some of the results follow.
# Experiments:
# Test in all cases: log2 fold change, soluble protein after heating vs DMSO (PISA); higher = thermal stabilisation; K562 lysate, 10 uM; active = over 0.2 and 3.5 SD of the protein, either way, in both replicates (recomputed)
# pictilisib = compound: CS(=O)(=O)N1CCN(Cc2cc3nc(-c4cccc5[nH]ncc45)nc(N4CCOCC4)c3s2)CC1 [pictilisib]
# Outline: (§1)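 Pellets of K562 cells were dounce-homogenised in PBS pH 7.4 with 1 mM MgCl2, and the crude extract was held at 1 mg/mL protein for a 30 min treatment with 10 μM compound. Aliquots were heated for 3 min over 48°C-58°C and pooled before NP-40 was added to 0.5% at 4°C. The supernatant from 21,000xg for 90 min was quantified by TMTpro 16plex LC-MS/MS with channel sums equalised. Values are reported from duplicates as log-two fold change in thermal stability relative to solvent controls.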
# [1] = compound: C[C@H](C1=CC=C(C=C1)C(=O)NC2=C3C=CNC3=NC=C2)N
# Outline: as §1
# duvelisib = compound: C[C@H](Nc1ncnc2nc[nH]c12)c1cc2cccc(Cl)c2c(=O)n1-c1ccccc1 [duvelisib]
# Outline: as §1
# gandotinib = compound: Cc1cc(Nc2cc(CN3CCOCC3)c3nc(C)c(Cc4ccc(Cl)cc4F)n3n2)n[nH]1 [gandotinib]
# Outline: as §1
# tozasertib = compound: Cc1cc(Nc2cc(N3CCN(C)CC3)nc(Sc3ccc(NC(=O)C4CC4)cc3)n2)n[nH]1 [tozasertib]
# Outline: as §1
# bafetinib = compound: Cc1ccc(NC(=O)c2ccc(CN3CC[C@H](N(C)C)C3)c(C(F)(F)F)c2)cc1Nc1nccc(-c2cncnc2)n1 [bafetinib]
# Outline: as §1
# [2] = compound: Cc1cccc(CC(=O)N2CCc3c2ccc(-c2cn(C)c4ncnc(N)c24)c3F)n1
# Outline: as §1
# dasatinib = compound: Cc1nc(Nc2ncc(C(=O)Nc3c(C)cccc3Cl)s2)cc(N2CCN(CCO)CC2)n1 [dasatinib]
# Outline: as §1
# [3] = compound: Cn1cc(-c2ccc3c(c2)CCN3C(=O)Cc2cccc(C(F)(F)F)c2)c2c(N)ncnc21
# Outline: as §1
# [4] = compound: NC1(c2ccc(-c3nc4ccn5c(=O)[nH]nc5c4cc3-c3ccccc3)cc2)CCC1
# Outline: as §1
# crizotinib = compound: C[C@@H](Oc1cc(-c2cnn(C3CCNCC3)c2)cnc1N)c1c(Cl)ccc(F)c1Cl [crizotinib]
# Outline: as §1
# doramapimod = compound: Cc1ccc(-n2nc(C(C)(C)C)cc2NC(=O)Nc2ccc(OCCN3CCOCC3)c3ccccc23)cc1 [doramapimod]
# Outline: as §1
# nilotinib = compound: Cc1cn(-c2cc(NC(=O)c3ccc(C)c(Nc4nccc(-c5cccnc5)n4)c3)cc(C(F)(F)F)c2)cn1 [nilotinib]
# Outline: as §1
# [5] = compound: Cc1nc(Nc2n[nH]c3c2CN(C(=O)N[C@H](CN(C)C)c2ccccc2)C3(C)C)c2sccc2n1
# Outline: as §1
# [6] = compound: Cc1ncc(-c2ccnc(Nc3ccc(S(C)(=O)=O)cc3)n2)n1C(C)C
# Outline: as §1
# quisinostat = compound: Cn1cc(CNCC2CCN(c3ncc(C(=O)NO)cn3)CC2)c2ccccc21 [quisinostat]
# Outline: as §1
# tipifarnib = compound: Cn1cncc1[C@@](N)(c1ccc(Cl)cc1)c1ccc2c(c1)c(-c1cccc(Cl)c1)cc(=O)n2C [tipifarnib]
# Outline: as §1
# [7] = compound: NC(=O)Nc1cc(-c2cccc(F)c2)sc1C(=O)N[C@H]1CCCNC1
# Outline: as §1
target,measurement,setting,value
HSBP1 (UniProt O75506),log2 fold change,pictilisib,inactive: 0.07
same,log2 fold change,[1],inactive: 0.256
same,log2 fold change,duvelisib,inactive: -0.081
same,log2 fold change,gandotinib,inactive: -0.05
same,log2 fold change,tozasertib,inactive: 0.052
same,log2 fold change,bafetinib,inactive: 0.035
same,log2 fold change,[2],inactive: -0.172
same,log2 fold change,dasatinib,inactive: 0.134
same,log2 fold change,[3],inactive: 0.135
same,log2 fold change,[4],inactive: 0.082
HNRNPC isoform 2 (UniProt P07910),log2 fold change,duvelisib,inactive: 0.146
same,log2 fold change,dasatinib,inactive: -0.051
same,log2 fold change,[3],inactive: 0.07
HINFP (UniProt Q9BQA5),log2 fold change,crizotinib,inactive: -0.218
same,log2 fold change,doramapimod,inactive: 0.111
same,log2 fold change,nilotinib,inactive: 0.217
same,log2 fold change,[5],inactive: 0.035
same,log2 fold change,[6],inactive: 0.054
same,log2 fold change,quisinostat,inactive: -0.278
same,log2 fold change,tipifarnib,inactive: -0.078
same,log2 fold change,[7],inactive: 0.187
HGF (UniProt P14210),log2 fold change,crizotinib,inactive: 0.05
same,log2 fold change,[1],inactive: -0.002
same,log2 fold change,gandotinib,inactive: -0.052
same,log2 fold change,doramapimod,inactive: 0.037
same,log2 fold change,[2],inactive: 0.048
same,log2 fold change,quisinostat,inactive: -0.222
same,log2 fold change,[7],inactive: 0
same,log2 fold change,[4],inactive: 0.05
HNRNPM (UniProt M0QZM1),log2 fold change,pictilisib,inactive: 0.076
same,log2 fold change,crizotinib,inactive: -0.07
same,log2 fold change,duvelisib,inactive: -0.06
same,log2 fold change,tozasertib,inactive: 0.075
same,log2 fold change,doramapimod,inactive: -0.017
same,log2 fold change,bafetinib,inactive: -0.243
same,log2 fold change,dasatinib,inactive: -0.022
same,log2 fold change,[3],inactive: -0.163
same,log2 fold change,quisinostat,inactive: 0
same,log2 fold change,[7],inactive: -0.012
HEXIM2 (UniProt Q96MH2),log2 fold change,crizotinib,inactive: 0.012
same,log2 fold change,duvelisib,inactive: -0.19
same,log2 fold change,doramapimod,inactive: -0.069
same,log2 fold change,dasatinib,inactive: 0.024
same,log2 fold change,[3],inactive: -0.116
same,log2 fold change,quisinostat,inactive: -0.055
same,log2 fold change,[7],inactive: 0.004
same,log2 fold change,[4],inactive: 0.015
HGFAC (UniProt Q04756),log2 fold change,[1],inactive: -0.198
same,log2 fold change,gandotinib,inactive: 0.129
same,log2 fold change,[2],inactive: -0.003
same,log2 fold change,nilotinib,inactive: -0.029
same,log2 fold change,[5],inactive: 0.089
same,log2 fold change,[6],inactive: 0.181
same,log2 fold change,tipifarnib,inactive: 0.011
HECW2 (UniProt Q9P2P5),log2 fold change,crizotinib,inactive: -0.075
same,log2 fold change,duvelisib,inactive: -0.088
same,log2 fold change,tozasertib,inactive: 0.165
same,log2 fold change,doramapimod,inactive: 0.24
same,log2 fold change,nilotinib,inactive: -0.147
same,log2 fold change,[5],inactive: 0.021
same,log2 fold change,dasatinib,inactive: -0.031
same,log2 fold change,[6],inactive: -0.092
same,log2 fold change,[3],inactive: -0.103
same,log2 fold change,quisinostat,active: -0.513
same,log2 fold change,tipifarnib,inactive: -0.041
same,log2 fold change,[7],inactive: -0.035
same,log2 fold change,[4],inactive: 0.126
HELZ2 (UniProt Q9BYK8),log2 fold change,crizotinib,inactive: -0.01
same,log2 fold change,doramapimod,inactive: 0.008
same,log2 fold change,nilotinib,inactive: 0.204
same,log2 fold change,[5],inactive: 0.145
same,log2 fold change,[6],inactive: 0.062
same,log2 fold change,quisinostat,inactive: -0.094
same,log2 fold change,tipifarnib,inactive: 0.127
same,log2 fold change,[7],inactive: 0.092
same,log2 fold change,[4],inactive: -0.046
HERPUD1 (UniProt Q15011),log2 fold change,pictilisib,inactive: 0.044
same,log2 fold change,[1],inactive: 0.086
same,log2 fold change,gandotinib,inactive: -0.072
same,log2 fold change,tozasertib,inactive: 0.046
same,log2 fold change,bafetinib,inactive: -0.09
same,log2 fold change,[2],inactive: 0.002
same,log2 fold change,nilotinib,inactive: 0.023
same,log2 fold change,[5],inactive: -0.091
same,log2 fold change,[6],inactive: -0.165
same,log2 fold change,tipifarnib,inactive: -0.154
HMX3 (UniProt A6NHT5),log2 fold change,[4],inactive: 0.126
HSF2 (UniProt Q03933),log2 fold change,[1],inactive: -0.119
same,log2 fold change,duvelisib,inactive: 0.078
same,log2 fold change,gandotinib,inactive: 0.049
same,log2 fold change,tozasertib,inactive: -0.044
same,log2 fold change,[2],inactive: 0.105
same,log2 fold change,dasatinib,inactive: -0.043
same,log2 fold change,[3],inactive: 0.11
HP (UniProt P00738),log2 fold change,[1],inactive: 0.483
same,log2 fold change,duvelisib,inactive: -0.023
same,log2 fold change,gandotinib,inactive: -0.33
same,log2 fold change,[2],inactive: 0.614
same,log2 fold change,dasatinib,inactive: -0.094
same,log2 fold change,[3],inactive: 0.403
HSD3B7 (UniProt Q9H2F3),log2 fold change,nilotinib,inactive: 0.105
same,log2 fold change,[5],inactive: -0.087
same,log2 fold change,[6],inactive: 0.029
same,log2 fold change,tipifarnib,inactive: 0.066
HPGD (UniProt P15428),log2 fold change,[1],inactive: 0.132
same,log2 fold change,duvelisib,inactive: 0.129
same,log2 fold change,gandotinib,inactive: 0.34
same,log2 fold change,tozasertib,inactive: 0.201
same,log2 fold change,[2],inactive: -0.137
same,log2 fold change,dasatinib,inactive: 0.343
same,log2 fold change,[3],inactive: -0.204
HSP90AA2P (UniProt Q14568),log2 fold change,crizotinib,inactive: 0.002
same,log2 fold change,tozasertib,inactive: -0.043
same,log2 fold change,doramapimod,inactive: -0.049
same,log2 fold change,quisinostat,inactive: 0.016
same,log2 fold change,[7],inactive: -0.026
HLA-E (UniProt P13747),log2 fold change,tozasertib,inactive: 0.108
same,log2 fold change,[4],inactive: -0.044
HMGCR isoform 3 (UniProt P04035),log2 fold change,crizotinib,inactive: -0.248
same,log2 fold change,tozasertib,inactive: 0.131
same,log2 fold change,doramapimod,inactive: 0.093
same,log2 fold change,quisinostat,inactive: -0.151
same,log2 fold change,[7],inactive: 0.137
HNRNPU isoform 2 (UniProt Q00839),log2 fold change,duvelisib,inactive: -0.073
same,log2 fold change,dasatinib,inactive: 0.032
same,log2 fold change,[3],inactive: 0.004
HERC3 (UniProt Q15034),log2 fold change,crizotinib,inactive: -0.057
same,log2 fold change,duvelisib,inactive: 0.093
same,log2 fold change,tozasertib,inactive: 0.123
same,log2 fold change,doramapimod,inactive: -0.006
same,log2 fold change,dasatinib,inactive: -0.004
same,log2 fold change,[3],inactive: 0.105
same,log2 fold change,quisinostat,inactive: 0.019
same,log2 fold change,[7],inactive: 0.054
HOOK1 (UniProt Q9UJC3),log2 fold change,[1],inactive: -0.582
same,log2 fold change,duvelisib,inactive: 0.117
same,log2 fold change,gandotinib,inactive: 0.225
same,log2 fold change,[2],inactive: 0.334
same,log2 fold change,dasatinib,inactive: -0.057
same,log2 fold change,[3],inactive: -0.089
same,log2 fold change,[4],inactive: -0.131
HELLS (UniProt Q9NRZ9),log2 fold change,crizotinib,inactive: 0.117
same,log2 fold change,duvelisib,inactive: 0.027
same,log2 fold change,tozasertib,inactive: -0.112
same,log2 fold change,doramapimod,inactive: 0.116
same,log2 fold change,nilotinib,inactive: -0.076
same,log2 fold change,[5],inactive: 0.049
same,log2 fold change,dasatinib,inactive: -0.018
same,log2 fold change,[6],inactive: 0.034
same,log2 fold change,[3],inactive: 0.19
same,log2 fold change,quisinostat,inactive: 0
same,log2 fold change,tipifarnib,inactive: 0.01
same,log2 fold change,[7],inactive: -0.018
same,log2 fold change,[4],inactive: -0.063
HLA-DRA,log2 fold change,tozasertib,inactive: 0.056
HMGXB4 (UniProt Q9UGU5),log2 fold change,tozasertib,inactive: -0.051
same,log2 fold change,[4],inactive: -0.339
HNRNPUL1 (UniProt M0R247),log2 fold change,pictilisib,inactive: 0.038
same,log2 fold change,[1],inactive: 0.014
same,log2 fold change,gandotinib,inactive: -0.014
same,log2 fold change,bafetinib,inactive: 0.008
same,log2 fold change,[2],inactive: 0.034
same,log2 fold change,[4],inactive: -0.063
HNRNPD (UniProt D6RF44),log2 fold change,crizotinib,inactive: -0.086
same,log2 fold change,doramapimod,inactive: 0
same,log2 fold change,nilotinib,inactive: -0.03
same,log2 fold change,[5],inactive: 0.11
same,log2 fold change,[6],inactive: 0.103
same,log2 fold change,quisinostat,inactive: -0.061
same,log2 fold change,tipifarnib,inactive: 0.12
same,log2 fold change,[7],inactive: -0.353
HIC2 isoform 2 (UniProt Q96JB3),log2 fold change,crizotinib,inactive: -0.079
same,log2 fold change,doramapimod,inactive: -0.088
same,log2 fold change,quisinostat,inactive: 0.028
same,log2 fold change,[7],inactive: -0.042
HPS3 (UniProt Q969F9),log2 fold change,crizotinib,inactive: -0.07
same,log2 fold change,[1],inactive: 0.016
same,log2 fold change,duvelisib,inactive: 0.059
same,log2 fold change,gandotinib,inactive: -0.163
same,log2 fold change,tozasertib,inactive: -0.061
same,log2 fold change,doramapimod,inactive: -0.129
same,log2 fold change,[2],inactive: 0.053
same,log2 fold change,nilotinib,inactive: 0.022
same,log2 fold change,[5],inactive: -0.031
same,log2 fold change,dasatinib,inactive: -0.03
same,log2 fold change,[6],inactive: -0.004
same,log2 fold change,[3],inactive: 0.02
same,log2 fold change,quisinostat,inactive: -0.085
same,log2 fold change,tipifarnib,inactive: -0.052
same,log2 fold change,[7],inactive: -0.069
same,log2 fold change,[4],inactive: -0.012
HPS6 (UniProt Q86YV9),log2 fold change,crizotinib,inactive: 0.17
same,log2 fold change,[1],inactive: 0.015
same,log2 fold change,duvelisib,inactive: 0.057
same,log2 fold change,gandotinib,inactive: -0.054
same,log2 fold change,tozasertib,inactive: -0.066
same,log2 fold change,doramapimod,inactive: -0.095
same,log2 fold change,[2],inactive: 0.059
same,log2 fold change,nilotinib,inactive: 0.019
same,log2 fold change,[5],inactive: 0.02
same,log2 fold change,dasatinib,inactive: -0.216
same,log2 fold change,[6],inactive: 0.049
same,log2 fold change,[3],inactive: 0.01
same,log2 fold change,quisinostat,inactive: 0.15
same,log2 fold change,tipifarnib,inactive: -0.002
same,log2 fold change,[7],inactive: 0.084
HMCN1 (UniProt Q96RW7),log2 fold change,pictilisib,inactive: -0.022
same,log2 fold change,[1],inactive: 0.274
same,log2 fold change,gandotinib,inactive: -0.241
same,log2 fold change,bafetinib,inactive: 0.077
same,log2 fold change,[2],inactive: -0.371
same,log2 fold change,nilotinib,inactive: 0.028
same,log2 fold change,[5],inactive: 0.18
same,log2 fold change,[6],inactive: 0.055
same,log2 fold change,tipifarnib,inactive: -0.197

# A second format for some results above.
target	measurement	setting	value
HERPUD1 (UniProt Q15011)	log2 fold change	bafetinib	inactive: -0.09
same	log2 fold change	[2]	inactive: 0.002
same	log2 fold change	nilotinib	inactive: 0.023
same	log2 fold change	[5]	inactive: -0.091

# Four records drawn at random from those above, as already listed:
target,measurement,setting,value
HOOK1 (UniProt Q9UJC3),log2 fold change,[2],inactive: 0.334
same,log2 fold change,[4],inactive: -0.131
HPS3 (UniProt Q969F9),log2 fold change,doramapimod,inactive: -0.129
HERPUD1 (UniProt Q15011),log2 fold change,gandotinib,inactive: -0.072
